{"source": "patent US7628765B2", "about": "“Increasing retrievable cells from a breast duct” (Cytyc Corporation, priority 2001, dated 2009)", "tested_on": "breast ducts of live rabbits", "assay": "Hematoxylin and Eosin cytology of collected ductal fluid", "type": "in vivo, New Zealand rabbit", "settings": "for cellular analysis of collected fluid: HE stain", "method": "Davidson green dye (1 ul) was added to each microfuge tube containing fluid for the purpose of taking a picture. The rabbit was euthanized by IV injection of supersaturated KCI. PBS (1.5 ul) was added to each collection. The cells were spun onto Shandon coated slide using megafunnel and cytospin-3 machine (Shandon, Inc. located in Pittsburgh, Pa.) at a speed of 1500/per minute for 15 minutes. The cells were fixed on the slide in 95% ethanol for 10 minutes. The cells were stained using Hematoxylin and Eosin (HE) method of cytology of collected fluid."}
{"smiles": "OC[C@@H](O)[C@@H](O)[C@H](O)[C@H](O)CO", "note": "[mannitol, D-Mannitol]", "values": [{"measurement": "cell morphology compared with PBS injected ducts", "setting": "fluid collected from mannitol and PBS injected ducts", "result": "looked similar"}, {"measurement": "cellular analysis of collected fluid", "setting": "nipple A, duct A1 (0.4 ml mannitol 12.5%)", "result": "A few ductal"}, {"measurement": "cellular analysis of collected fluid", "setting": "nipple B, duct B1 (0.5 ml mannitol 12.5%)", "result": "A few ductal"}, {"measurement": "cellular analysis of collected fluid", "setting": "nipple C, duct C1 (0.7 ml mannitol 12.5%)", "result": "A few ductal"}]}
